Data from PubChem BioAssay AID1671190 (National Center for Advancing Translational Sciences (NCATS), 2021).
Where “and” joins values, the source holds several entries; their conditions need not be identical. Equal entries are not always repeated. The whole screen tested about 580,000 compounds, of which about 6,100 (1.1%) were called active. The inconclusive results got no clear call from the source; some entries with a clear call stand among them for comparison. Calls come from the whole dose curve; as a rule, active = well fitted inhibition curve with a large enough effect; inconclusive = small, poorly fitted or top-dose-only effect, or another doubt; inactive = no such curve, though single readings can be large or run the other way. Where the call is inconclusive, the potency comes from a doubtful curve fit.

By UniProt entry, the sequences of proteins in these tests, tags left out. Where a name states a change or a piece, a line headed by the entry shows the natural chain unless it says otherwise.
UniProt P18054: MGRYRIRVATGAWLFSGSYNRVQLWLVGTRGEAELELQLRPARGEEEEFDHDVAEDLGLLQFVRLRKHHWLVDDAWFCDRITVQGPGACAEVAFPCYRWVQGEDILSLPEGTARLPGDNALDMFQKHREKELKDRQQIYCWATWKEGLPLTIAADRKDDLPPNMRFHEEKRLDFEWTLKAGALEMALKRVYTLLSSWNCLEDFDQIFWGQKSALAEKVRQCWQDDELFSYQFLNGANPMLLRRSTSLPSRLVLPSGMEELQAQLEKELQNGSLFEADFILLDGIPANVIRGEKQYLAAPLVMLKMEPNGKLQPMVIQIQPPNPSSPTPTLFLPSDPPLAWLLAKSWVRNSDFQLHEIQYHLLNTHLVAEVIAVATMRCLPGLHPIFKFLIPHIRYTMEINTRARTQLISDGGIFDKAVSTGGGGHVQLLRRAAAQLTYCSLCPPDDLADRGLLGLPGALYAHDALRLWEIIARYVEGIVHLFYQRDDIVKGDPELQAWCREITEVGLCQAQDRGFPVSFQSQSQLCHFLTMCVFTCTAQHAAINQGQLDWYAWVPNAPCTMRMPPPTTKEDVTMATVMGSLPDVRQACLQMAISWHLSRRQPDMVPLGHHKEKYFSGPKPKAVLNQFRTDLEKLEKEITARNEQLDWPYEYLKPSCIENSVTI

Biological target: Polyunsaturated fatty acid lipoxygenase ALOX12 (Homo sapiens) (UniProt P18054)
Assay: Primary qHTS assay for inhibitors of human arachidonate 12S-lipoxygenase (ALOX12): Round 2
Details: purified 12hLO, xylenol orange hydroperoxide absorbance; activity change, negative = inhibition: at 108 µM (top of the series) unless noted
Outline: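 Purified human 12hLO (150 nM final) in 25 mM Hepes, 0.01% Triton X-100, pH 7.0 was preincubated 15 min at room temperature with compound. Then 40 uM arachidonic acid was added, 30 min. Hydroperoxide was read by Fe-XO absorbance ratio 573/405 nm.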
% is set by controls: 0 for no effect and ±100 for the full control effect; potency is the fitted concentration of half-maximal effect.

Row | Compound | Potency | activity change, negative = inhibition
1 | CCCCNC(=S)Nc1cccc(C(F)(F)F)c1 | inconclusive: 79.4 µM [inhibitor, single point] | –
2 | O=C(NC(=S)Nc1cc([N+](=O)[O-])ccc1O)C1CC1 | – | inactive: 0%
3 | CC1(C)c2[nH]c3ccccc3c2C[C@H]2C(=O)N(Cc3ccccc3)C(=O)N21 | inconclusive: 89.1 µM [inhibitor, partial curve, poor fit] | –
4 | COc1ccc(Nc2nc3ccccc3c3nnc(C)n23)cc1Cl | active: 3.16 µM | –
5 | O=C1c2cnc(-c3cccc(CO)c3)nc2OCCN1c1ccccc1 | inconclusive: 25.1 µM [inhibitor, full curve, poor fit] | –
6 | CCOC(=O)C1CCCN(c2c(Nc3ccc(C)c(C)c3)c(=O)c2=O)C1 (stereo not given) | inconclusive: 100 µM [inhibitor, single point] | –
7 | O=S(=O)(c1ccccc1)n1nc(NCc2ccccc2)nc1NCc1ccccc1 | – | inactive: 3.6%
8 | COC(=O)c1c(NC(=O)COC(=O)CNC(=O)c2cccc(OC(F)F)c2)sc(C)c1C | inconclusive: 100 µM [inhibitor, single point] | –
9 | CCNC(=O)N1CCCCC1c1nc(CCOc2ccc(F)cc2)no1 (stereo not given) | – | inactive: 16.3%
10 | O=C(CCNS(=O)(=O)c1ccc(Cl)cc1)OCC(=O)N1CCN(C(=O)c2ccco2)CC1 | inconclusive: 35.5 µM [inhibitor, partial curve, poor fit] | –
11 | Cc1ccc(N2CC(C(=O)Nc3c(C)nn(C)c3C)CC2=O)cc1 (stereo not given) | – | inactive: 1.43%
12 | COc1cc(OC)nc(Nc2nc(C(N)Cc3ccc(F)cc3)cs2)n1 (stereo not given) | – | inactive: -7.34%
13 | O=C(CSc1nc2c(c(=O)[nH]1)CN(Cc1ccc3c(c1)OCO3)CC2)Nc1cccc(Cl)c1 | inconclusive: 50.1 µM [inhibitor, partial curve, poor fit] | –
14 | C=CCn1c(SC(F)F)nc2scc(-c3ccco3)c2c1=O | – | inactive: -6.14%
15 | CC1CCCCC1NC(=O)c1ccco1 (stereo not given) | – | inactive: -11.9%
16 | CCOc1cccc(/C=C(/C#N)C(=O)c2ccccc2OC)c1 | inconclusive: 44.7 µM [inhibitor, partial curve, poor fit] | –
17 | CCCCn1c(=O)[nH]c(=O)c2c1nc(-c1ccsc1)n2Cc1ccccc1 | – | inactive: -15.4%
18 | Cc1cc(C)c(NC(=S)NC(=O)c2ccccc2)cc1C | inconclusive: 7.08 µM [inhibitor, full curve, poor fit] | –
19 | CSc1ccc(/C=C/C(=O)c2ccccc2)cc1 | – | inactive: -36.9%
20 | COc1ccc(Nc2cnc3ccc(-c4cccc(CO)c4)nn23)cc1OC | inconclusive: 20 µM [inhibitor, full curve] | –
21 | CCOC(=O)C[C@@H]1C[C@@H](C(C)C)[C@H](CNS(=O)(=O)c2ccccc2)C=C1C | inconclusive: 126 µM [inhibitor, partial curve, poor fit] | –
22 | CCN(CC(=O)Nc1sc2c(c1C#N)CCC(C)C2)Cc1nc2ccccc2c(=O)[nH]1 (stereo not given) | inconclusive: 39.8 µM [inhibitor, partial curve, poor fit] | –
23 | CSc1ccc(-c2ccco2)nn1 | – | inactive: -27.7%
24 | COC(=O)CC1C(=O)NCCN1S(=O)(=O)c1cccc(Br)c1 (stereo not given) | – | inactive: 9.21%

Row | Compound | Potency | activity change, negative = inhibition
25 | O=C(Nc1ccc(F)c(F)c1F)c1ccc(-c2ccccc2)cc1 | inconclusive: 100 µM [inhibitor, single point] | –
26 | CCOc1ccc2nc(N3C(=O)CNC3=S)sc2c1 | – | inactive: 0%
27 | CCOc1ccc(NS(=O)(=O)c2cc(-c3cnc(C)o3)ccc2C)cc1 | – | inactive: 11.3%
28 | c1cc(C2CCCCC2)ccc1Oc1nc(N2CCOCC2)nc(N2CCOCC2)n1 | – | inactive: 3.05%
29 | C=C(C)CSC1=C(C#N)C(c2sccc2C)CC(=O)N1 (stereo not given) | inconclusive: 39.8 µM [inhibitor, partial curve, poor fit] | –
30 | COc1ccc(NS(=O)(=O)c2cc(OC)ccc2NC(=O)c2cc(C)oc2C)cc1 | active: 35.5 µM | –
31 | Oc1ccc(Br)cc1/C=N/NC(=S)NCCc1ccccc1 | inconclusive: 39.8 µM [inhibitor, partial curve, poor fit] | –
32 | O=C(c1cc(C2CC2)[nH]n1)N1CCc2n[nH]c(=O)n2CC1 | inconclusive: 50.1 µM [inhibitor, partial curve] | –
33 | CCOc1cc(=O)n2c(c1C(=O)NCc1cc(OC)ccc1OC)CCCC2 | – | inactive: 40.6%
34 | O=C1N(CCc2ccccc2)c2ccccc2C12CCN(CC1CC1)C2 (stereo not given) | inconclusive: 44.7 µM [inhibitor, full curve] | –
35 | CC[C@H]1C(c2ccc(F)cc2)=NN(c2ccccc2)[C@@H]1CO | inconclusive: 89.1 µM [inhibitor, partial curve, poor fit] | –
36 | Cc1cc(C(=O)N2CCC3(CCCN(CC4CCC4)C3=O)C2)nc(C)n1 (stereo not given) | – | inactive: 12.9%
37 | N#CCCN(C(=S)NC(=O)C1CCCCC1)c1ccccc1F | inconclusive: 44.7 µM [inhibitor, partial curve] | –
38 | CC(=O)c1ccccc1NC(=O)C1(c2ccccc2)CCC1 | – | inactive: 7.14%
39 | CCOc1cc(/C=C/C(=O)c2ccc(C)cc2)ccc1OCC(=O)N(C)C | – | inactive: -22.1%
40 | COC(=O)C1=NN(N=O)C2(CC(=O)N(c3cc(C)cc(C)c3)C2=O)C1 (stereo not given) | inconclusive: 35.5 µM [inhibitor, partial curve, poor fit] | –
41 | COc1ccc(S(=O)(=O)Cc2ccc(C(=O)N3CCN(c4cccc(C)c4)C(C)C3)o2)cc1 (stereo not given) | – | inactive: -1.39%
42 | COCCNC(C)(CCCCC(=O)O)c1nnnn1-c1c(C)cccc1Cl (stereo not given) | inconclusive: 10 µM [inhibitor, full curve] | –
43 | CCc1cccc(NS(=O)(=O)c2c(C)nc3sc(CC)nn3c2=O)c1 | inactive | –
44 | CCOc1ccc(N2C(=O)CC(Sc3n[nH]c(-c4ccccc4)n3)C2=O)cc1 (stereo not given) | – | inactive: -28.9%
45 | CC(C)CC(NC(=O)C1CCCCC1)C(=O)NCCc1ccccc1 (stereo not given) | – | inactive: -59.6%
46 | CCn1nccc1C(=O)N1CCC2(CC1)NC(=O)N(c1ccc(F)cc1)N2 | inconclusive: 8.91 µM [inhibitor, full curve, poor fit] | –
47 | Cc1ccccc1CN(C)CCc1ccccn1 | inconclusive: 0.562 µM [inhibitor, full curve, poor fit] | –
48 | COc1ccc(S(=O)(=O)N2CCC[C@H]2C(=O)N2CCC[C@H]2C(=O)N[C@H](C)c2ccccc2)cc1C | inconclusive: 112 µM [inhibitor, single point] | –

Row | Compound | Potency | activity change, negative = inhibition
49 | C=CC[C@H](CC(=O)NCCO)C(=O)N[C@H](COC(=O)[C@H](CC=C)CC(=O)OC(C)(C)C)Cc1c[nH]c2ccccc12 | – | inconclusive: -35.5% [inhibitor]
50 | CC1(c2nnnn2-c2ccc3c(c2)OCCO3)CCC(=O)N1CC1CCCCC1 (stereo not given) | inconclusive: 89.1 µM [inhibitor, single point] | –
51 | Cc1ccc(C)c(NC(=S)N/N=C2\CCc3ccccc32)c1 | active: 22.4 µM | –
52 | CCCc1ccc(OCC)c(-c2csc(N)n2)c1 | inconclusive: 44.7 µM [inhibitor, partial curve, poor fit] | –
53 | Cc1cc(C(=O)NC2CCCc3c2cnn3-c2cccc(C)c2C)c(C)o1 (stereo not given) | inconclusive: 50.1 µM [inhibitor, partial curve, poor fit] | –
54 | Cc1ccc(N/N=C(\C#N)C(N)=S)cc1C | active: 2 µM | –
55 | Cc1ccc(NC(=O)C2(C)CCCCC(=O)N2)cc1 (stereo not given) | – | inactive: 13.5%
56 | COc1cccc(C(=O)Nc2cccc(-c3ccc(N4CCOCC4)nn3)c2)c1OC | inconclusive: 4.47 µM [inhibitor, full curve, poor fit] | –
57 | Cc1ccc(N2CC(NC(=O)c3ccc(S(=O)(=O)N4CCCCC4)cc3)CC2=O)cc1 (stereo not given) | inconclusive: 100 µM [inhibitor, partial curve, poor fit] | –
58 | CC(C)(C)CN[C@H]1C[C@@H](Cc2cc(COc3ccccc3)on2)C1(C)C | inconclusive: 63.1 µM [inhibitor, full curve] | –
59 | CN(C(=O)C1=CC(c2ccc3c(c2)OCO3)=NS(=O)(=O)N1C)c1ccccc1 | inconclusive: 141 µM [inhibitor, single point] | –
60 | O=C(Nc1nc(-c2cc3ccccc3oc2=O)cs1)c1ccc(Cl)cc1 | inconclusive: 141 µM [inhibitor, single point] | –
61 | CN1CCN(C2Cc3cc(F)ccc3Sc3ccc(Cl)cc32)CC1 (stereo not given) | – | inactive: 10.6%
62 | Cc1ccc2nc(N3C(=O)C(O)=C(C(=O)c4ccco4)C3c3cccc(O)c3)sc2c1 (stereo not given) | inconclusive: 8.91 µM [inhibitor, full curve, poor fit] and active: 25.1 µM | –
63 | C=C1C[C@@]2(O)O[C@@]3(C[C@H]2C(C)C)[C@H](C)CC[C@H]13 | inconclusive: 19.3 µM [inhibitor, partial curve, poor fit] | –
64 | CC(C)c1noc([C@@H]2C[C@H](NS(=O)(=O)Cc3ccccc3)CN2C)n1 | inconclusive: 28.2 µM [inhibitor, single point] | –
65 | Cc1ccc2c(C(=O)CN3CCCCC3CCO)c(C)[nH]c2c1 (stereo not given) | – | inactive: -2.06%
66 | CC[C@]1(C(=O)OC)[C@H]2C(=O)N(C)C(=O)[C@H]2[C@H]2CN=C(SCc3ccc(OC)cc3)N21 | inconclusive: 12.6 µM [inhibitor, full curve] | –
67 | Fc1c(F)c(F)c(N/N=C/c2c[nH]c3ccccc23)c(F)c1F | inconclusive: 50.1 µM [inhibitor, partial curve, poor fit] | –
68 | COC(=O)C1=C(O)C2(C(=O)O)CC(C(=O)OC)=C(O)C(C(=O)O)(C1)C2 | – | inactive: -38.3%
69 | COc1ccccc1NS(=O)(=O)c1cc(N/C(=N/S(=O)(=O)c2ccccc2)c2ccc(F)cc2)ccc1Cl | – | inactive: -18.7%
70 | COc1ccc(CNc2oc(-c3ccccc3)nc2C#N)cc1OC | inconclusive: 89.1 µM [inhibitor, partial curve, poor fit] | –

3 of these compounds, set out differently.

| Row | Compound | Potency | activity change, negative = inhibition |
| --- | --- | --- | --- |
| 60 | O=C(Nc1nc(-c2cc3ccccc3oc2=O)cs1)c1ccc(Cl)cc1 | inconclusive: 141 µM [inhibitor, single point] | – |
| 61 | CN1CCN(C2Cc3cc(F)ccc3Sc3ccc(Cl)cc32)CC1 (stereo not given) | – | inactive: 10.6% |
| 62 | Cc1ccc2nc(N3C(=O)C(O)=C(C(=O)c4ccco4)C3c3cccc(O)c3)sc2c1 (stereo not given) | inconclusive: 8.91 µM [inhibitor, full curve, poor fit] and active: 25.1 µM | – |
